Literature values as cited in patent US9801949B2, “Combinations of albumin-based drug delivery systems” (KTB TUMORFORSCHUNGSGESELLSCHAFT MBH, priority 2012, dated 2017).
Like-named read-outs stand apart in the source and are kept apart here. At least one structure is not confirmed: it was looked up by name or label, or the drawing left a doubt. Numbered stars: 1 amine (or outer) side, 2 acyl side, 3 side chain; on linkers, the order of the positions; unused ones are H or OH. Square brackets hold non-standard residues; d marks the D form. Side chains are listed from the residue outwards. Peptide text beside a SMILES is read from it. * marks the point of attachment. DAMPA = CN(Cc1cnc2nc(N)nc(N)c2n1)c1ccc(C(=O)*)cc1; Hexanoyl(6-maleimido) = O=C1C=CC(=O)N1CCCCCC(=O)*; γGlu = O=C(O)[C@H](CCC(=O)[*:2])N[*:1]

Conditions: weekly i.v. schedule, cited from earlier work

| SMILES | maximum tolerated dose (MTD) | maximum tolerated dose (MTD) (nude mice) |
| --- | --- | --- |
| C[C@@H](NC(=O)CCCCCN1C(=O)C=CC1=O)C(=O)N[C@@H](Cc1ccccc1)C(=O)N[C@@H](CCCCN)C(=O)N[C@@H](CCCCNC(=O)CC[C@H](NC(=O)c1ccc(N(C)Cc2cnc3nc(N)nc(N)c3n2)cc1)C(=O)O)C(=O)O [AW054, EMC-D-Ala-Phe-Lys-Lys(γ-MTX)-OH] ({Hexanoyl(6-maleimido)}-[dA]FKK([γGlu-DAMPA])-OH) | 3×20 mg/kg (methotrexate equivalents) |  |
| COc1cccc2c1C(=O)c1c(O)c3c(c(O)c1C2=O)CC(O)(C(CO)=NNC(=O)CCCCCN1C(=O)C=CC1=O)CC3OC1CC(N)C(O)C(C)O1 (centres unmarked) [DOXO-EMCH, 6-maleimidocaproyl(hydrazone) derivative of doxorubicin] |  | 3×24 mg/kg doxorubicin equivalents |
